By UniProt entry, the sequences of proteins in these tests, tags left out.
UniProt Q9H4L4: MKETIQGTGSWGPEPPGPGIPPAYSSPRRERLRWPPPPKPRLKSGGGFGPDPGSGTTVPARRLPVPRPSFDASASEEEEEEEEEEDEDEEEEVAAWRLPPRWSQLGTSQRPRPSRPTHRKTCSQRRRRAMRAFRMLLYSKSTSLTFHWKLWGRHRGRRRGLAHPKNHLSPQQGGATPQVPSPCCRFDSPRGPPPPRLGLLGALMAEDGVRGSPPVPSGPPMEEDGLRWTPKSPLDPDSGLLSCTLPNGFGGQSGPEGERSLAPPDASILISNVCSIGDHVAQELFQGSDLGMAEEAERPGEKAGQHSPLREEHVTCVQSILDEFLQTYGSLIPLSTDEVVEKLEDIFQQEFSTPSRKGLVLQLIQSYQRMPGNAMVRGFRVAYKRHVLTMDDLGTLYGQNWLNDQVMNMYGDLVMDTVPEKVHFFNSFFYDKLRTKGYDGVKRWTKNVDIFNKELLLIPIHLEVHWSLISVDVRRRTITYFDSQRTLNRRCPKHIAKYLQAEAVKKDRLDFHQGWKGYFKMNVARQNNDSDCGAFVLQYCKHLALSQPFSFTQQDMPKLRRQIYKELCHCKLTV

According to publication PMC4707158:

B1: GANAB (protein, UniProt Q14697 29-944)
chain: ITLAVDRSNFKTCEESSFCKRQRSIRPGLSPYRALLDSLQLGPDSLTVHLIHEVTKVLLVLELQGLQKNMTRFRIDELEPRRPRYRVPDVLVADPPIARLSVSGRDENSVELTMAEGPYKIILTARPFRLDLLEDRSLLLSVNARGLLEFEHQRAPRVSQGSKDPAEGDGAQPEETPRDGDKPEETQGKAEKDEPGAWEETFKTHSDSKPYGPMSVGLDFSLPGMEHVYGIPEHADNLRLKVTEGGEPYRLYNLDVFQYELYNPMALYGSVPVLLAHNPHRDLGIFWLNAAETWVDISSNTAGKTLFGKMMDYLQGSGETPQTDVRWMSETGIIDVFLLLGPSISDVFRQYASLTGTQALPPLFSLGYHQSRWNYRDEADVLEVDQGFDDHNLPCDVIWLDIEHADGKRYFTWDPSRFPQPRTMLERLASKRRKLVAIVDPHIKVDSGYRVHEELRNLGLYVKTRDGSDYEGWCWPGSAGYPDFTNPTMRAWWANMFSYDNYEGSAPNLFVWNDMNEPSVFNGPEVTMLKDAQHYGGWEHRDVHNIYGLYVHMATADGLRQRSGGMERPFVLARAFFAGSQRFGAVWTGDNTAEWDHLKISIPMCLSLGLVGLSFCGADVGGFFKNPEPELLVRWYQMGAYQPFFRAHAHLDTGRREPWLLPSQHNDIIRDALGQRYSLLPFWYTLLYQAHREGIPVMRPLWVQYPQDVTTFNIDDQYLLGDALLVHPVSDSGAHGVQVYLPGQGEVWYDIQSYQKHHGPQTLYLPVTLSSIPVFQRGGTIVPRWMRVRRSSECMKDDPITLFVALSPQGTAQGELFLDDGHTFNYQTRQEFLLRRFSFSGNTLVSSSADPEGHFETPIWIERVVIIGAGKPAAVVLQTKGSPESRLSFQHDPETSVLVLRKPGINVASDWSIHLR
B2: MOGS (protein, UniProt Q13724 1-837)
chain: MARGERRRRAVPAEGVRTAERAARGGPGRRDGRGGGPRSTAGGVALAVVVLSLALGMSGRWVLAWYRARRAVTLHSAPPVLPADSSSPAVAPDLFWGTYRPHVYFGMKTRSPKPLLTGLMWAQQGTTPGTPKLRHTCEQGDGVGPYGWEFHDGLSFGRQHIQDGALRLTTEFVKRPGGQHGGDWSWRVTVEPQDSGTSALPLVSLFFYVVTDGKEVLLPEVGAKGQLKFISGHTSELGDFRFTLLPPTSPGDTAPKYGSYNVFWTSNPGLPLLTEMVKSRLNSWFQHRPPGAPPERYLGLPGSLKWEDRGPSGQGQGQFLIQQVTLKIPISIEFVFESGSAQAGGNQALPRLAGSLLTQALESHAEGFRERFEKTFQLKEKGLSSGEQVLGQAALSGLLGGIGYFYGQGLVLPDIGVEGSEQKVDPALFPPVPLFTAVPSRSFFPRGFLWDEGFHQLVVQRWDPSLTREALGHWLGLLNADGWIGREQILGDEARARVPPEFLVQRAVHANPPTLLLPVAHMLEVGDPDDLAFLRKALPRLHAWFSWLHQSQAGPLPLSYRWRGRDPALPTLLNPKTLPSGLDDYPRASHPSVTERHLDLRCWVALGARVLTRLAEHLGEAEVAAELGPLAASLEAAESLDELHWAPELGVFADFGNHTKAVQLKPRPPQGLVRVVGRPQPQLQYVDALGYVSLFPLLLRLLDPTSSRLGPLLDILADSRHLWSPFGLRSLAASSSFYGQRNSEHDPPYWRGAVWLNVNYLALGALHHYGHLEGPHQARAAKLHGELRANVVGNVWRQYQATGFLWEQYSDRDGRGMGCRPFHGWTSLVLLAMAEDY
B3: RRM1 (protein, UniProt P23921 1-792)
chain: MHVIKRDGRQERVMFDKITSRIQKLCYGLNMDFVDPAQITMKVIQGLYSGVTTVELDTLAAETAATLTTKHPDYAILAARIAVSNLHKETKKVFSDVMEDLYNYINPHNGKHSPMVAKSTLDIVLANKDRLNSAIIYDRDFSYNYFGFKTLERSYLLKINGKVAERPQHMLMRVSVGIHKEDIDAAIETYNLLSERWFTHASPTLFNAGTNRPQLSSCFLLSMKDDSIEGIYDTLKQCALISKSAGGIGVAVSCIRATGSYIAGTNGNSNGLVPMLRVYNNTARYVDQGGNKRPGAFAIYLEPWHLDIFEFLDLKKNTGKEEQRARDLFFALWIPDLFMKRVETNQDWSLMCPNECPGLDEVWGEEFEKLYASYEKQGRVRKVVKAQQLWYAIIESQTETGTPYMLYKDSCNRKSNQQNLGTIKCSNLCTEIVEYTSKDEVAVCNLASLALNMYVTSEHTYDFKKLAEVTKVVVRNLNKIIDINYYPVPEACLSNKRHRPIGIGVQGLADAFILMRYPFESAEAQLLNKQIFETIYYGALEASCDLAKEQGPYETYEGSPVSKGILQYDMWNVTPTDLWDWKVLKEKIAKYGIRNSLLIAPMPTASTAQILGNNESIEPYTSNIYTRRVLSGEFQIVNPHLLKDLTERGLWHEEMKNQIIACNGSIQSIPEIPDDLKQLYKTVWEISQKTVLKMAAERGAFIDQSQSLNIHIAEPNYGKLTSMHFYGWKQGLKTGMYYLRTRPAANPIQFTLNKEKLKDKEKVSKEEEEKERNTAAMVCSLENRDECLMCGS
B4: NUP93 (protein, UniProt Q8N1F7 1-819)
chain: MDTEGFGELLQQAEQLAAETEGISELPHVERNLQEIQQAGERLRSRTLTRTSQETADVKASVLLGSRGLDISHISQRLESLSAATTFEPLEPVKDTDIQGFLKNEKDNALLSAIEESRKRTFGMAEEYHRESMLVEWEQVKQRILHTLLASGEDALDFTQESEPSYISDVGPPGRSSLDNIEMAYARQIYIYNEKIVNGHLQPNLVDLCASVAELDDKSISDMWTMVKQMTDVLLTPATDALKNRSSVEVRMEFVRQALAYLEQSYKNYTLVTVFGNLHQAQLGGVPGTYQLVRSFLNIKLPAPLPGLQDGEVEGHPVWALIYYCMRCGDLLAASQVVNRAQHQLGEFKTWFQEYMNSKDRRLSPATENKLRLHYRRALRNNTDPYKRAVYCIIGRCDVTDNQSEVADKTEDYLWLKLNQVCFDDDGTSSPQDRLTLSQFQKQLLEDYGESHFTVNQQPFLYFQVLFLTAQFEAAVAFLFRMERLRCHAVHVALVLFELKLLLKSSGQSAQLLSHEPGDPPCLRRLNFVRLLMLYTRKFESTDPREALQYFYFLRDEKDSQGENMFLRCVSELVIESREFDMILGKLENDGSRKPGVIDKFTSDTKPIINKVASVAENKGLFEEAAKLYDLAKNADKVLELMNKLLSPVVPQISAPQSNKERLKNMALSIAERYRAQGISANKFVDSTFYLLLDLITFFDEYHSGHIDRAFDIIERLKLVPLNQESVEERVAAFRNFSDEIRHNLSEVLLATMNILFTQFKRLKGTSPSSSSRPQRVIEDRDSQLRSQARTLITFAGMIPYRTSGDTNARLVQMEVLMN
B5: QARS (protein, UniProt P47897 1-775)
chain: MAALDSLSLFTSLGLSEQKARETLKNSALSAQLREAATQAQQTLGSTIDKATGILLYGLASRLRDTRRLSFLVSYIASKKIHTEPQLSAALEYVRSHPLDPIDTVDFERECGVGVIVTPEQIEEAVEAAINRHRPQLLVERYHFNMGLLMGEARAVLKWADGKMIKNEVDMQVLHLLGPKLEADLEKKFKVAKARLEETDRRTAKDVVENGETADQTLSLMEQLRGEALKFHKPGENYKTPGYVVTPHTMNLLKQHLEITGGQVRTRFPPEPNGILHIGHAKAINFNFGYAKANNGICFLRFDDTNPEKEEAKFFTAICDMVAWLGYTPYKVTYASDYFDQLYAWAVELIRRGLAYVCHQRGEELKGHNTLPSPWRDRPMEESLLLFEAMRKGKFSEGEATLRMKLVMEDGKMDPVAYRVKYTPHHRTGDKWCIYPTYDYTHCLCDSIEHITHSLCTKEFQARRSSYFWLCNALDVYCPVQWEYGRLNLHYAVVSKRKILQLVATGAVRDWDDPRLFTLTALRRRGFPPEAINNFCARVGVTVAQTTMEPHLLEACVRDVLNDTAPRAMAVLESLRVIITNFPAAKSLDIQVPNFPADETKGFHQVPFAPIVFIERTDFKEEPEPGFKRLAWGQPVGLRHTGYVIELQHVVKGPSGCVESLEVTCRRADAGEKPKAFIHWVSQPLMCEVRLYERLFQHKNPEDPTEVPGGFLSDLNLASLHVVDAALVDCSVALAKPFDKFQFERLGYFSVDPDSHQGKLVFNRTVTLKEDPGKV
B6: ALDH18A1 (protein, UniProt P54886 1-795)
chain: MLSQVYRCGFQPFNQHLLPWVKCTTVFRSHCIQPSVIRHVRSWSNIPFITVPLSRTHGKSFAHRSELKHAKRIVVKLGSAVVTRGDECGLALGRLASIVEQVSVLQNQGREMMLVTSGAVAFGKQRLRHEILLSQSVRQALHSGQNQLKEMAIPVLEARACAAAGQSGLMALYEAMFTQYSICAAQILVTNLDFHDEQKRRNLNGTLHELLRMNIVPIVNTNDAVVPPAEPNSDLQGVNVISVKDNDSLAARLAVEMKTDLLIVLSDVEGLFDSPPGSDDAKLIDIFYPGDQQSVTFGTKSRVGMGGMEAKVKAALWALQGGTSVVIANGTHPKVSGHVITDIVEGKKVGTFFSEVKPAGPTVEQQGEMARSGGRMLATLEPEQRAEIIHHLADLLTDQRDEILLANKKDLEEAEGRLAAPLLKRLSLSTSKLNSLAIGLRQIAASSQDSVGRVLRRTRIAKNLELEQVTVPIGVLLVIFESRPDCLPQVAALAIASGNGLLLKGGKEAAHSNRILHLLTQEALSIHGVKEAVQLVNTREEVEDLCRLDKMIDLIIPRGSSQLVRDIQKAAKGIPVMGHSEGICHMYVDSEASVDKVTRLVRDSKCEYPAACNALETLLIHRDLLRTPLFDQIIDMLRVEQVKIHAGPKFASYLTFSPSEVKSLRTEYGDLELCIEVVDNVQDAIDHIHKYGSSHTDVIVTEDENTAEFFLQHVDSACVFWNASTRFSDGYRFGLGAEVGISTSRIHARGPVGLEGLLTTKWLLRGKDHVVSDFSEHGSLKYLHENLPIPQRNTN
B7: MAGED1 (protein, UniProt Q9Y5V3 1-778)
chain: MAQKMDCGAGLLGFQAEASVEDSALLMQTLMEAIQISEAPPTNQATAAASPQSSQPPTANEMADIQVSAAAARPKSAFKVQNATTKGPNGVYDFSQAHNAKDVPNTQPKAAFKSQNATPKGPNAAYDFSQAATTGELAANKSEMAFKAQNATTKVGPNATYNFSQSLNANDLANSRPKTPFKAWNDTTKAPTADTQTQNVNQAKMATSQADIETDPGISEPDGATAQTSADGSQAQNLESRTIIRGKRTRKINNLNVEENSSGDQRRAPLAAGTWRSAPVPVTTQNPPGAPPNVLWQTPLAWQNPSGWQNQTARQTPPARQSPPARQTPPAWQNPVAWQNPVIWPNPVIWQNPVIWPNPIVWPGPVVWPNPLAWQNPPGWQTPPGWQTPPGWQGPPDWQGPPDWPLPPDWPLPPDWPLPTDWPLPPDWIPADWPIPPDWQNLRPSPNLRPSPNSRASQNPGAAQPRDVALLQERANKLVKYLMLKDYTKVPIKRSEMLRDIIREYTDVYPEIIERACFVLEKKFGIQLKEIDKEEHLYILISTPESLAGILGTTKDTPKLGLLLVILGVIFMNGNRASEAVLWEALRKMGLRPGVRHPLLGDLRKLLTYEFVKQKYLDYRRVPNSNPPEYEFLWGLRSYHETSKMKVLRFIAEVQKRDPRDWTAQFMEAADEALDALDAAAAEAEARAEARTRMGIGDEAVSGPWSWDDIEFELLTWDEEGDFGDPWSRIPFTFWARYHQNARSRFPQTFAGPIIGPGGTASANFAANFGAIGFFWVE

What follows are binders tested against FLAG-SENP3 (UniProt Q9H4L4) (assay: affinity purification with mass spectrometry; 293T cells transfected with vector FLAG-pcDNA or FLAG-SENP3; co-IP with anti-FLAG antibody; gel silver stained, bands of approximately 100 kDa examined by MS; Table 1 lists the hits that were also increased in lysate of SENP3-transfected cells).

binding, binds:
B1
B2
B3
B4
B5
B6
B7

These are yes or no findings as the source states them, for the method shown. In cells and extracts the contact can be indirect. These calls come from enrichment with a bait or labelling near it, and not all partners need be listed.
